Assay results published in patent US8802713B2, “3-alkoxy-1-phenylpyrazole derivatives and pesticides” (Kumiai Chemical Industry Co., Ltd., priority 2007, dated 2014).
Some entries share one result that the patent states for a list of compounds.

What was measured:
[1] = system: two-spotted spider mites; assay: Miticidal test on two-spotted spider mites (seedling dip); assay type: in vivo, Tetranvchus urticae; details: 500 ppm active ingredient, soybean seedlings with imago mites dipped, 25° C., 13 days
Method: A wettable powder prepared in accordance with Formulation Example 2 was diluted with water to a concentration of an active ingredient of 500 ppm. Soybean seedlings which had been inoculated with imago two-spotted spider mites were dipped in the solution and dried in air. The treated soybean seedlings were placed in a thermostatic chamber at 25° C. for 13 days, and the number of live mites were assessed for calculation of the protective value by Equation 1. The test was carried out by one series system.

[2] = system: two-spotted spider mites; assay: Miticidal test on two-spotted spider mites (soil irrigation); assay type: in vivo, Tetranvchus urticae; details: 100 ppm active ingredient, soil (100 g) of soybean seedlings irrigated with 5 mL, 25° C., 13 days
[3] = system: cotton aphid; assay: Insecticidal test on cotton aphid (seedling dip); assay type: in vivo; details: 500 ppm active ingredient, cucumber seedlings with larvae of cotton aphid dipped, 25° C., 3 days
Method in brief: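 Cucumber seedlings carrying cotton aphid larvae were dipped in a water-diluted wettable powder at 500 ppm active ingredient, then air-dried. After 3 days at 25° C. live insects were counted and mortality calculated; single series.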

[4] = system: brown rice planthopper; assay: Insecticidal test on brown rice planthopper; assay type: in vivo; details: 500 ppm active ingredient, rice sprouts dipped, third-instar larvae, 25° C., 6 days
Method in brief: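 Rice sprouts dipped in 500 ppm active ingredient (water-diluted wettable powder), then exposed to ten third-instar brown rice planthopper larvae. Held at 25° C. for 6 days; dead larvae counted for mortality, single series.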

[5] = system: southern root-knot nematodes; assay: Nematicidal test on root-knot nematode; assay type: in vivo; details: 20 ppm active ingredient solution mixed 1:1 with suspension of second-instar larvae, 25° C., 5 days
Method: A compound to be tested was dissolved in N,N-dimethylformamide containing 1 mass % of tween 20, and this solution was diluted with distilled water to a concentration of an active ingredient of 20 ppm. 0.5 mL of the solution was mixed with 0.5 mL of a suspension containing about 30 second-instar larvaes of southern root-knot nematodes, and the mixture was placed in a thermostatic chamber at 25° C. for 5 days. The number of dead nematodes and the number of live nematodes were assessed by a microscope for calculation of the mortality by Equation 3. The test was carried out by two series system.

Row | SMILES | protective value [1] | protective value [2] | mortality [3] | mortality [4] | mortality [5]
1 | CC(=O)N(C)c1cc(OCC(F)(F)C(F)(F)F)nn1-c1cc([S+]([O-])CC(F)(F)F)c(C)cc1F (stereo not shown) [1-34] | ≥ 90 | ≥ 90 | ≥ 90% |  | 
2 | CC(=O)N(CC#N)c1cc(OCC(F)(F)C(F)(F)F)nn1-c1cc([S+]([O-])CC(F)(F)F)c(C)cc1F (stereo not shown) [1-36] | ≥ 90 | ≥ 90 |  | ≥ 90% | 
3 | COC(=O)N(C(C)=O)c1cc(OCC(F)(F)C(F)(F)F)nn1-c1cc([S+]([O-])CC(F)(F)F)c(C)cc1F (stereo not shown) [1-38] | ≥ 90 | ≥ 90 | ≥ 90% | ≥ 90% | 
4 | CC(=O)Nc1c(F)c(OCC(F)(F)C(F)(F)F)nn1-c1cc([S+]([O-])CC(F)(F)F)c(C)cc1F (stereo not shown) [1-48] | ≥ 90 | ≥ 90 | ≥ 90% | ≥ 90% | 
5 | Cc1cc(F)c(-n2nc(OC(F)(F)C(F)C(F)(F)F)cc2C)cc1[S+]([O-])CC(F)(F)F (stereo not shown) [1-90] | ≥ 90 | ≥ 90 | ≥ 90% | ≥ 90% | ≥ 90%
6 | Cc1cc(F)c(-n2nc(OC(F)(F)C(F)OC(F)(F)F)cc2C)cc1[S+]([O-])CC(F)(F)F (stereo not shown) [1-106] | ≥ 90 | ≥ 90 | ≥ 90% | ≥ 90% | ≥ 90%
7 | CCC(=O)Nc1cc(OCC(F)(F)C(F)(F)F)nn1-c1cc([S+]([O-])CC(F)(F)F)c(C)cc1F (stereo not shown) [1-116] | ≥ 90 | ≥ 90 | ≥ 90% |  | ≥ 90%
8 | Cc1cc(F)c(-n2nc(OCC(F)(F)C(F)(F)F)cc2NC(=O)C2CC2)cc1[S+]([O-])CC(F)(F)F (stereo not shown) [1-120] | ≥ 90 | ≥ 90 |  |  | ≥ 90%
